# Laboratory results from PubChem BioAssay AID1508600 (Functional Genomics Laboratory (NCATS/FGL), 2020).
# The whole screen tested about 53,000 sequences, of which about 3,700 (7%) were called active.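 How the source made its calls: active means gene knockdowns whose robust z-score for IL-1 alpha signal is at least 2 or at most -2, so actives lie on both sides; inactive means the rest.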 This is one part of the list.
# Assay: Components of the Cytosolic LPS Sensing Pathway: Gene Identification via Genome-wide siRNA Screen;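 further: robust z of the log signal after scaling to non-targeting control siRNA wells of the plate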
# Conditions: RAW264.7 macrophages, IL-1a HTRF, actives lie on both sides, screened at 100 nM (by protocol), cells primed 5 h with Pam3CSK4 first
# Outline: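 Knockdown: 100 nM siRNA, 48h, RAW264.7. Stimulation: Pam3CSK4 5 h, then LipidA via TransIT-TKO 24 h. Output: supernatant IL-1a HTRF, negative-control-normalized, log robust z-score; viability by CellTiter-Glo.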
row,Sequence,z-score
1,GUUACCUCUGUGUUGUACUTT against Olfr60,inactive: -0.148
2,GGAGGAGAGCAUUCCCAUUTT against Ddx6,inactive: -0.89
3,GGCCCAAGAGAUUGAUCAATT against Ivd,inactive: -0.565
4,CCUUGUCGCACAAAGAAUATT against Tm9sf1,inactive: -0.335
5,GGAGUUUGACCACUACGUATT against P2ry4,inactive: -0.0534
6,GCUCGUUCUUCGACAUCUUTT against Stard3,inactive: -0.946
7,CCCUACUUUGUACAUAGAUTT against Gbx2,inactive: 1.91
8,GGAAAACAAUUUCAGGCAATT against Zdhhc3,inactive: -1.07
9,GGAAACAUGUCCUCACACATT against Top3b,inactive: 1.41
10,GGGUCCUGGUUUUACAUUCTT against Itpr1,inactive: 1.59
11,CCUCCGGAGUAUAAACAAUTT against Nr1i3,inactive: 0.21
12,GGUGGAGAGAAAGAGAAAATT against Mcm8,inactive: 0.767
13,GGACUUCUUCACCAUCUGGTT against Lcat,inactive: -1.3
14,GGAUCUACUUAUGAGCUAGTT against Rnf220,inactive: 0.896
15,GGAGAUGUGAAGAUUCAGUTT against Vsig4,inactive: 0.0265
16,GGCGGAAGCCAUGAAGAAATT against Kcnmb4,inactive: 0.11
17,GGAACAAAGACAUGUAUCATT against Zgpat,inactive: -0.931
18,GCUCUUUCUAUAAAAGGCCTT against Map3k9,inactive: 0.887
19,GGCACAAUUAGCUAAGAAUTT against Abi3bp,inactive: -1.87
20,GGUAAAAUACUACCUGAGATT against Abca15,inactive: -0.0103
21,GGAGUUCACAUUCUUUCUGTT against Cbx7,inactive: -1.15
22,GGCUGCACAAAGAUGUUCATT against Yy1,active: 2.46

row,Sequence,z-score
1,GGAUGGUUACAUCAACUGCTT against Cabp1,inactive: 0.68
2,CCUACUCCACGGGUAUUUUTT against 1700065D16Rik,inactive: -0.331
3,GCAACGACUCAACCAAUUCTT against Tbkbp1,inactive: 0.926
4,GCAUACGAGGAAACUACAUTT against Chm,inactive: 1.48
5,GGCAUACAAACACAAAAUUTT against Tmem218,inactive: -1.69
6,GGAUUCAUCGGGUCAGGAGTT against Mier1,inactive: -1.43
7,GGACAUCGUGCUCUAUCUCTT against Nrarp,inactive: -1.07
8,CGUACAUGCUCCUUCUAUCTT against 2900005J15Rik,inactive: -0.646
9,GCGAUUUGUCUAGUCCAAATT against Zfp622,inactive: -1.08
10,GGAAGUUUUGGGAGUGUGUTT against Map3k20,inactive: -1.08
11,GGUUGACAUGGUUCAGUCATT against Tcf23,inactive: -0.499
12,GGCUAAAACACUUAUCAAUTT against Poteg,active: -2.32
13,GCAUUUCACUUUGAGAAAUTT against Ahrr,inactive: -0.438
14,CCUCAAAACAGUGUGGACATT against 9630041A04Rik,inactive: -0.334
15,CCAGGUGUUUGAUGCAUUCTT against Foxr2,inactive: 1.11
16,GGGCAGUAAAGCUUUCUUGTT against Actl9,inactive: 1.05
17,CCAAAGUUCCCUUAGCCAUTT against Cntrob,inactive: 0.12
18,GGUGACAUUACAUUUCAUATT against Pgam5,inactive: 0.486
19,CGUUCAGUGUCUGCAGGUUTT against Mrps12,inactive: -0.0575
20,GGGUAUGAUGUGAUUGCUCTT against Eif4a2,inactive: 0.0435
21,GCCACUUACUUUUCUGAAATT against Commd7,inactive: 1.18
22,GGACAUGAGGACUGUAUCATT against Clec4g,active: -3.2

# Part of the list above, bar-delimited.
row | Sequence | z-score
18 | GGUGACAUUACAUUUCAUATT against Pgam5 | inactive: 0.486
19 | CGUUCAGUGUCUGCAGGUUTT against Mrps12 | inactive: -0.0575

# Further records:

row,Sequence,z-score
1,GGAAUUUGCCUAUAUGAAGTT against Riok2,inactive: -0.867
2,AAGGUCGUUUACAUGAACATT against Fbxw20,inactive: 1.19
3,GGAGGAUUGUCCACAUGGATT against Ccl27a,active: 4.32
4,CGGGACCUAUGUGAUCAUGTT against Casp1,inactive: -0.287
5,GGACACCAUCAAUUGAUUATT against Wdr27,inactive: -0.127
6,GCCCAACAACGCAGAAUUUTT against Cyp4v3,inactive: 1.25
7,GGACUGCUAUGGGUCUUCATT against Clk3,inactive: -0.684
8,GCUGAACCAAACCCAAAUGTT against Snph,inactive: 0.00664
9,CCAGAUAUGAUGGUGCAAGTT against Sfrp4,inactive: 0.351
10,CCACAGUGAAUCGAGCUUATT against Olfr685,inactive: -0.597
11,GGACAGCAUUCUGAGCAGUTT against Cx3cr1,inactive: -0.341
12,GCAGGAGAAAAGAAUCAAGTT against Gm5800,inactive: -1.44
13,GGACCACGCAAAAGAAUAUTT against Mtss1,inactive: 0.0212
14,GCCCGUCACAAUCAUUACCTT against Zfp523,inactive: 1.59
15,GCAGCUUUGCUCAGCCCAATT against Tex22,inactive: -1.12
16,GCUAAUUCAAGAGGAACUATT against Ccdc18,inactive: -0.526
17,GGAAAACAAAUUCAAGUGCTT against Tex9,inactive: 1.51
18,GCAGGGUUUCAAAGAUAACTT against Npepl1,inactive: -0.765
19,GGAAGUCUUCCAUGAUAUUTT against 4933400A11Rik,inactive: -0.752
20,CCAAUCCAAUGAAUGUUUCTT against A330070K13Rik,inactive: -1.75
21,CCAUCCUCAACAAGAUCGATT against Rab4b,active: 2.25
22,CGCCAAUUCAUCGUUGACUTT against Ccl3,inactive: 0.773

row,Sequence,z-score
1,CGAAUUGAAUUCUACGAACTT against Pmm2,inactive: 0.252
2,GGCUCCUCUUUUAUCUACATT against Erg28,inactive: -0.881
3,CCACCUCUCAAAUAAAACATT against Cyp2a5,inactive: -0.629
4,GGAAUUUUAUUCAGAGGCUTT against Thoc5,inactive: -0.548
5,GGACUGCACUGUCAUGGUATT against Coro1b,inactive: -0.378
6,GGUCCAGAUUCGAACACCATT against Babam1,inactive: -1.13
7,CGUCCAACCACAGAUCUACTT against 4921536K21Rik,inactive: 0.752
8,CCCACAUCUUAACUUGUUGTT against Rab5c,inactive: 0.0792
9,GGAUGCUAUUUUUGAAACCTT against Lins1,inactive: -0.0898
10,GGUCAAUUCCAUGAUUACGTT against Pgm3,inactive: 0.538
11,GCGGGAACUUAAAGUUUACTT against Yars,active: 3.18
12,GCAGGGAAUAGCAAACUUATT against Nfil3,inactive: 1.18
13,GGAGCGUGACUUUGUAUAATT against Ly6g6e,inactive: 0.206
14,GGAGCAAGAAGAACAUUACTT against Csgalnact2,inactive: 0.844
15,CCCAAUUUUUAGUCUUAUGTT against Gdpgp1,inactive: -0.00619
16,CCACUGAUUGUUGACUGCUTT against Trip6,inactive: 1.81
17,GGUUCAAGAAAAAACCCAATT against Ezh1,inactive: 0.0229
18,GGGUAUAUUUUUGAUACCUTT against Ncor2,inactive: 0.504
19,GGAUGGAACAGACUAUAGUTT against Oacyl,inactive: -0.643
20,GGCACCUAGAAUGAGAUGCTT against Nhlh2,inactive: 0.498
21,CCAAAACAAUACUCACCACTT against Mfap4,inactive: -0.361
22,GGUCCUAAUGCACUUUUUATT against 1700093K21Rik,inactive: 0.718

# 2 successive records from above, for reference:
row,Sequence,z-score
20,GGCACCUAGAAUGAGAUGCTT against Nhlh2,inactive: 0.498
21,CCAAAACAAUACUCACCACTT against Mfap4,inactive: -0.361

# Further entries

row,Sequence,z-score
1,GGUGGAUGCAAUUCUCUGUTT against Qdpr,inactive: -0.631
2,GGGAAAUCCUUUCUCAGUATT against Ugt3a2,inactive: -1.92
3,GGUUCUCAAAGAAAAGUUUTT against Bola3,inactive: -0.623
4,GCCUAAGGUCCAAACCAAGTT against Rpl29,inactive: 0.134
5,GUGUAUCACAAGACUAUGCTT against Leap2,inactive: 1.86
6,GGAAAUUGCCUUCUACGGGTT against Abcd1,inactive: 0.116
7,GGACAUAAGAAAAUGACCATT against Mbtd1,inactive: 0.148
8,CCUCUUUCAUAACUGAUGUTT against Fam161b,inactive: 0.0861
9,CCUUCAUUCUCAUUGGCAUTT against Olfr591,inactive: -0.163
10,GGAAAUCCAUUGUUUAAAGTT against Wt1,active: 2.01
11,GGUGGAGUUUGUGCAGAAGTT against Pla2g4e,inactive: -0.658
12,GGCUGAAAAGAAAAACAGATT against Rgs5,inactive: -0.378
13,GCGUGCUUAUGAACAUAGUTT against Spen,active: 2.02
14,GGAAUUCAGCGAAGAGAAUTT against Rgs10,inactive: -1.48
15,GGAAAGAAGAAAUGAGAAGTT against Gm9871,inactive: -1.57
16,GCCCUCACAGCCAGAAUUGTT against Pram1,active: -2.15
17,GGGAGUAUUACUCUAUUCUTT against Fam168b,inactive: 0.569
18,CCUGACGAUCAAAUCACUGTT against Mvb12a,inactive: 0.0387
19,GGAUCAUCAAGGACUUCAUTT against Ppil1,inactive: 0.464
